No constants are given. Whether binding was seen depends on the method and setting. Binding calls can cover weak binding; strength is not graded here.
Target: coagulation factor XIII A subunit (zymogenic, in the plasma FXIIIA2B2 heterotetramer) (human) (UniProt P00488)
Experiment: SEC; purified FXIIIA2B2 from Fibrogammin P, without thrombin, 0-25 mM CaCl2, 20 mM Tris, 120 mM NaCl, pH 7.4, 60 minutes at 30 degrees; Superdex 200; peaks checked by native PAGE and mass spectrometry; the partners were purified together as the complex; both purified

By UniProt entry, the sequences of proteins in these tests, tags left out. Where a name states a change or a piece, a line headed by the entry shows the natural chain unless it says otherwise.
UniProt P00488: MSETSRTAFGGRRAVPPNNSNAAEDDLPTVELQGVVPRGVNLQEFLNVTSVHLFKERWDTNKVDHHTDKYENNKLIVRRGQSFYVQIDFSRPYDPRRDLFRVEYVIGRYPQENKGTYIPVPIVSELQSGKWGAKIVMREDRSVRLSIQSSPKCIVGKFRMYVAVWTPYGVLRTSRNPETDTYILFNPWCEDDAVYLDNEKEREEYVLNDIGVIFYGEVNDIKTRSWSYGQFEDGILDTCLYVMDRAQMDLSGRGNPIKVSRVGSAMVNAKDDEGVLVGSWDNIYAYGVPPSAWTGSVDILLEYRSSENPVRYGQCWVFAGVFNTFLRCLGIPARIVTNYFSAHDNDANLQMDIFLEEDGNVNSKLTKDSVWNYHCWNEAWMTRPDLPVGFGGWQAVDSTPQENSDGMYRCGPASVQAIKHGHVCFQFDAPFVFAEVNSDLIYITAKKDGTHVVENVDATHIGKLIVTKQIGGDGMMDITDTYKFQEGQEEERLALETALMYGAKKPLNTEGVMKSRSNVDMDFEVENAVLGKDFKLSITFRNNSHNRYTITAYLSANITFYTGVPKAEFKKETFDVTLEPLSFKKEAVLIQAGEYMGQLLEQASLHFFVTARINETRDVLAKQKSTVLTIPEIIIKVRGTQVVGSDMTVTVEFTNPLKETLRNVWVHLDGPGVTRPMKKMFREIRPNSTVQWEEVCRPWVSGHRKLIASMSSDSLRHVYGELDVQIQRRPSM

binding: binds
B1: coagulation factor XIII B subunit (natural protein, human, UniProt P05160 21-661, looked up)
chain: EEKPCGFPHVENGRIAQYYYTFKSFYFPMSIDKKLSFFCLAGYTTESGRQEEQTTCTTEGWSPEPRCFKKCTKPDLSNGYISDVKLLYKIQENMRYGCASGYKTTGGKDEEVVQCLSDGWSSQPTCRKEHETCLAPELYNGNYSTTQKTFKVKDKVQYECATGYYTAGGKKTEEVECLTYGWSLTPKCTKLKCSSLRLIENGYFHPVKQTYEEGDVVQFFCHENYYLSGSDLIQCYNFGWYPESPVCEGRRNRCPPPPLPINSKIQTHSTTYRHGEIVHIECELNFEIHGSAEIRCEDGKWTEPPKCIEGQEKVACEEPPFIENGAANLHSKIYYNGDKVTYACKSGYLLHGSNEITCNRGKWTLPPECVENNENCKHPPVVMNGAVADGILASYATGSSVEYRCNEYYLLRGSKISRCEQGKWSSPPVCLEPCTVNVDYMNRNNIEMKWKYEGKVLHGDLIDFVCKQGYDLSPLTPLSELSVQCNRGEVKYPLCTRKESKGMCTSPPLIKHGVIISSTVDTYENGSSVEYRCFDHHFLEGSREAYCLDGMWTTPPLCLEPCTLSFTEMEKNNLLLKWDFDNRPHILHGEYIEFICRGDTYPAELYITGSILRMQCDRGQLKYPRCIPRQSTLSYQEPLRT
notes: human coagulation factor XIII B subunit from plasma, ten Sushi domains; 80 kDa; also called FXIIIB; FXIIIB2; source: purified as FXIIIA2B2 from plasma concentrate Fibrogammin P (CSL Behring), gel filtration on Superdex 200

— publication PMC4958977, “Revisiting the mechanism of coagulation factor XIII activation and regulation from a structure/functional perspective” (Scientific Reports, 2016)
